According to the supplement of paper PMC10331698:
± gives the standard deviation of the averaged measurements. Most entries show no effect beyond the scatter of the controls.

Key:
Assay in all cases: level (log10 ratio to DMSO vehicle control); higher = higher biomarker level / cell amount than vehicle control
[1] = compound: O=P(O)(O)CCC(F)(F)C(F)(F)C(F)(F)C(F)(F)C(F)(F)C(F)(F)F [2-(Perfluorohexyl)ethylphosphonic acid]; conditions: 2200 nM; in DMSO
Procedure: (§1)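 BioMAP Diversity Plus panel of 12 human primary cell co-culture systems (3C, 4H, LPS, SAg, BT, BF4T, BE3C, CASM3C, HDF3CGF, KF3CT, MyoF, Mphg). Compounds were added 1 h before stimulation and left for 24 h (MyoF 48 h; BT 72 h for soluble read-outs or 6 d for IgG). Biomarkers were read by ELISA, cytotoxicity by SRB, PBMC viability and proliferation by Alamar Blue. Each well value was divided by the mean of 8 DMSO control wells on the same plate and log10 transformed; duplicate blinded samples were tested at 4 concentrations.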

[2] = compound: OCCCCC(F)(F)C(F)(F)C(F)(F)C(F)(F)F [4:4 Fluorotelomer alcohol]; conditions: 2200 nM; in DMSO
Procedure: as §1

[3] = compound: C=CC(=O)OCC(F)(F)C(F)(F)C(F)(F)C(F)(F)C(F)(F)C(F)(F)C(F)(F)F [1H,1H-Perfluorooctyl acrylate]; conditions: 2200 nM; in DMSO
Procedure: as §1

[4] = compound: O=C(O)C(F)(F)C(F)(F)C(F)F [4H-Perfluorobutanoic acid]; conditions: in DMSO
Procedure: as §1

[5] = compound: FC(F)(F)C(F)(F)C(F)(F)CC1CO1 [1H,1H-Heptafluorobutyl epoxide]; conditions: 2200 nM; in DMSO
Procedure: as §1

[6] = compound: OCC(F)(F)C(F)(F)C(F)(F)C(F)(F)C(F)(F)C(F)F [1H,1H,7H-Dodecafluoro-1-heptanol]; conditions: 2200 nM; in DMSO
Procedure: as §1

[7] = compound: C=CC(F)(F)C(F)(F)C(F)(F)C(F)(F)C(F)(F)C(F)(F)C(F)(F)C(F)(F)C=C [1,8-Divinylperfluorooctane]; conditions: in DMSO
Procedure: as §1

[8] = compound: CO[Si](C)(CCC(F)(F)C(F)(F)C(F)(F)C(F)(F)C(F)(F)C(F)(F)F)OC [Dimethoxymethyl((perfluorohexyl)ethyl)silane]; conditions: in DMSO
Procedure: as §1

[9] = compound: COC(=O)C(F)(F)C(F)(F)OC(F)(C(F)(F)F)C(F)(F)OC(F)=C(F)F [Methyl perfluoro(3-(1-ethenyloxypropan-2-yloxy)propanoate)]; conditions: in DMSO
Procedure: as §1

[10] = compound: NC(=O)C(F)(F)C(F)(F)F [Pentafluoropropionamide]; conditions: 2200 nM; in DMSO
Procedure: as §1

[11] = compound: NS(=O)(=O)C(F)(F)C(F)(F)C(F)(F)C(F)(F)C(F)(F)C(F)(F)C(F)(F)C(F)(F)F [Perfluorooctanesulfonamide]; conditions: in DMSO
Procedure: as §1

[12] = compound: NC(=O)C(F)(F)C(F)(F)C(F)(F)C(F)F; conditions: in DMSO
Procedure: as §1

[13] = compound: O=S(=O)(O)C(F)(F)C(F)(F)C(F)(F)C(F)(F)C(F)(F)C(F)(F)C(F)(F)C(F)(F)F [Potassium perfluorooctanesulfonate]; conditions: 2200 nM; in DMSO
Procedure: as §1

[14] = compound: O=S(=O)(O)C(F)(F)C(F)(F)C(F)(F)C(F)(F)C(F)(F)C(F)(F)C(F)(F)C(F)(F)F [Perfluorooctanesulfonic acid]; conditions: 2200 nM; in DMSO
Procedure: as §1

[15] = compound: O=S(=O)(F)C(F)(F)C(F)(F)C(F)(F)C(F)(F)C(F)(F)C(F)(F)C(F)(F)C(F)(F)F [Perfluorooctanesulfonyl fluoride]; conditions: 2200 nM; in DMSO
Procedure: as §1

[16] = compound: C=C(C)C(=O)OCC(F)(F)C(F)(F)C(F)(F)C(F)(F)C(F)(F)C(F)(F)C(F)(F)F; conditions: in DMSO
Procedure: as §1

[17] = compound: O=S(=O)(OCC(F)(F)F)C(F)(F)C(F)(F)C(F)(F)C(F)(F)F [2,2,2-Trifluoroethyl perfluorobutanesulfonate]; conditions: 2200 nM; in DMSO
Procedure: as §1

[18] = compound: FC(F)(F)C(F)(F)C(F)(F)CI [Heptafluorobutyl iodide]; conditions: 2200 nM; in DMSO
Procedure: as §1

Row | Test System | level (log10) [1] | level (log10) [2] | level (log10) [3] | level (log10) ([4]; 2200 nM) | level (log10) ([4]; 6700 nM) | level (log10) ([4]; 20000 nM) | level (log10) ([4]; 60000 nM) | level (log10) [5] | level (log10) [6] | level (log10) ([7]; 740 nM) | level (log10) ([7]; 2200 nM) | level (log10) ([8]; 740 nM) | level (log10) ([8]; 2200 nM) | level (log10) ([9]; 740 nM) | level (log10) ([9]; 2200 nM) | level (log10) [10] | level (log10) ([11]; 2200 nM) | level (log10) ([11]; 6700 nM) | level (log10) ([11]; 20000 nM) | level (log10) ([12]; 2200 nM) | level (log10) ([12]; 6700 nM) | level (log10) ([12]; 20000 nM) | level (log10) ([12]; 60000 nM) | level (log10) [13] | level (log10) [14] | level (log10) [15] | level (log10) ([16]; 740 nM) | level (log10) ([16]; 2200 nM) | level (log10) [17] | level (log10) [18]
1 | BE3C:uPA | 0.0055 ± 0.023 | 0.0015 ± 0.018 | -0.008 ± 0.0028 | -0.0235 ± 0.049 | -0.016 ± 0.05 | -0.009 ± 0.016 | 0.0055 ± 0.06 | -0.0115 ± 0.0078 | -0.008 ± 0.011 | -0.0105 ± 0.00071 | -0.0135 ± 0.011 | 0.005 ± 0.027 | 0.007 ± 0.011 | -0.009 ± 0.016 | -0.0195 ± 0.00071 | -0.0095 ± 0.0078 | -0.004 ± 0.0085 | -0.0065 ± 0.013 | 0.0145 ± 0.0064 | -0.0015 ± 0.005 | -0.01 ± 0.0057 | -0.013 ± 0.0085 | -0.0045 ± 0.013 | 0.006 ± 0.0071 | -0.0005 ± 0.0092 | 0.002 ± 0.0057 | -0.002 ± 0.011 | -0.0075 ± 0.019 | 0.005 ± 0.017 | -0.0055 ± 0.018
2 | MyoF:Collagen IV | -0.0225 ± 0.0035 | 0.0125 ± 0.021 | 0.0295 ± 0.023 | 0.0185 ± 0.054 | 0.0025 ± 0.0035 | 0.0005 ± 0.0035 | 0.023 ± 0.027 | -0.018 ± 0.0014 | 0.016 ± 0.065 | 0.0065 ± 0.03 | -0.0255 ± 0.021 | 0.031 ± 0.064 | 0.0075 ± 0.019 | -0.0065 ± 0.022 | -0.007 ± 0.014 | -0.0035 ± 0.0035 | 0.018 ± 0.031 | 0.118 ± 0.015 | 0.28 ± 0.028 | 0.024 ± 0.037 | -0.0075 ± 0.0035 | -0.007 ± 0.028 | 0.014 ± 0.038 | 0.0305 ± 0.05 | 0.0135 ± 0.043 | 0.019 ± 0.03 | 0.005 ± 0.03 | -0.03 ± 0.0028 | -0.0225 ± 0.021 | 0.0005 ± 0.0064
3 | LPS:CD40 | -0.0195 ± 0.028 | -0.0025 ± 0.012 | 0.0455 ± 0.12 | 0.009 ± 0.013 | -0.0365 ± 0.022 | -0.0355 ± 0.021 | 0.015 ± 0.031 | 0.017 ± 0.011 | 0.0005 ± 0.0064 | 0.0055 ± 0.023 | -0.0005 ± 0.013 | -0.025 ± 0.013 | -0.0095 ± 0.029 | 0.05 ± 0.0071 | 0.0425 ± 0.0092 | -0.0335 ± 0.0092 | -0.0565 ± 0.0021 | -0.0635 ± 0.018 | -0.115 ± 0.0042 | -0.013 ± 0.088 | -0.0125 ± 0.029 | -0.0045 ± 0.018 | -0.03 ± 0.017 | -0.056 ± 0.041 | -0.0085 ± 0.035 | -0.133 ± 0.38 | 0.005 ± 0.0028 | -0.0045 ± 0.0035 | -0.011 ± 0.045 | -0.018 ± 0.037
4 | BE3C:MMP-9 | 0.0045 ± 0.039 | 0.012 | 0.003 ± 0.037 | -0.0215 ± 0.029 | -0.0105 ± 0.019 | 0.02 ± 0.023 | -0.009 ± 0.02 | -0.0145 ± 0.005 | -0.003 ± 0.0071 | 0.0045 ± 0.04 | -0.014 ± 0.047 | 0.0045 ± 0.00071 | -0.0265 ± 0.012 | -0.0045 ± 0.047 | -0.0285 ± 0.047 | 0.028 ± 0.03 | -0.052 ± 0.038 | -0.101 ± 0.016 | -0.131 ± 0.0014 | 0.0065 ± 0.03 | -0.007 ± 0.0014 | -0.0045 ± 0.0092 | 0.0095 ± 0.023 | -0.008 ± 0.062 | -0.001 ± 0.028 | -0.003 ± 0.018 | -0.0085 ± 0.019 | -0.0145 ± 0.0035 | -0.034 ± 0.0028 | -0.0025 ± 0.019
5 | HDF3CGF:M-CSF | -0.006 ± 0.025 | -0.006 | -0.005 ± 0.025 | -0.0045 ± 0.037 | -0.0305 ± 0.035 | -0.013 ± 0.033 | -0.015 ± 0.041 | 0.0275 ± 0.069 | 0.012 ± 0.018 | 0.0075 ± 0.013 | -0.032 ± 0.028 | 0.02 | -0.0215 ± 0.018 | 0.029 ± 0.0071 | 0.013 ± 0.047 | 0.004 ± 0.03 | 0.017 ± 0.051 | -0.0605 ± 0.012 | -0.507 ± 0.07 | -0.001 ± 0.017 | -0.0065 ± 0.0078 | -0.008 ± 0.0014 | 0.017 ± 0.031 | 0.0285 ± 0.0035 | 0.005 ± 0.0057 | -0.0435 ± 0.069 | 0.022 ± 0.081 | 0.0065 ± 0.019 | 0.007 ± 0.014 | -0.0615 ± 0.066
6 | SAg:CD40 | -0.0005 ± 0.005 | 0.013 ± 0.0014 | 0.0055 ± 0.011 | -0.016 ± 0.051 | 0 ± 0.0028 | -0.056 ± 0.045 | -0.028 ± 0.044 | -0.0025 ± 0.042 | 0.008 ± 0.016 | -0.0145 ± 0.021 | -0.0275 ± 0.018 | -0.034 ± 0.0042 | -0.0185 ± 0.0064 | -0.015 ± 0.017 | -0.0295 ± 0.0021 | -0.0315 ± 0.047 | -0.011 ± 0.0071 | -0.028 ± 0.0042 | -0.1085 ± 0.00071 | -0.0175 ± 0.0035 | -0.023 ± 0.0028 | -0.0155 ± 0.019 | -0.02 ± 0.028 | -0.0125 ± 0.018 | -0.0175 ± 0.03 | -0.028 ± 0.034 | -0.0265 ± 0.0078 | -0.044 ± 0.014 | -0.013 ± 0.031 | -0.0445 ± 0.066
7 | CASM3C:CD106/VCAM-1 | -0.0145 ± 0.022 | 0.02 ± 0.09 | 0.0175 ± 0.013 | 0.014 ± 0.014 | 0.031 ± 0.057 | 0.041 ± 0.014 | 0.04 ± 0.0085 | -0.0195 ± 0.0064 | 0.01 ± 0.014 | -0.017 ± 0.057 | -0.001 ± 0.0028 | -0.021 ± 0.0071 | -0.0125 ± 0.016 | -0.0035 ± 0.012 | -0.0085 ± 0.005 | -0.003 ± 0.04 | 0.0165 ± 0.036 | -0.0185 ± 0.0021 | -0.0405 ± 0.037 | -0.0155 ± 0.012 | -0.009 ± 0.0057 | -0.003 ± 0.014 | -0.008 ± 0.014 | 0.0205 ± 0.061 | -0.0055 ± 0.043 | 0.008 ± 0.0042 | 0.0005 ± 0.011 | -0.011 ± 0.014 | -0.0135 ± 0.022 | 0.011 ± 0.016
